In doi:10.1101/2025.05.21.655390 one finds binding data, which are given here for three substances.

Chains of the proteins cited; added tags and fusions are not shown.
UniProt Q12905: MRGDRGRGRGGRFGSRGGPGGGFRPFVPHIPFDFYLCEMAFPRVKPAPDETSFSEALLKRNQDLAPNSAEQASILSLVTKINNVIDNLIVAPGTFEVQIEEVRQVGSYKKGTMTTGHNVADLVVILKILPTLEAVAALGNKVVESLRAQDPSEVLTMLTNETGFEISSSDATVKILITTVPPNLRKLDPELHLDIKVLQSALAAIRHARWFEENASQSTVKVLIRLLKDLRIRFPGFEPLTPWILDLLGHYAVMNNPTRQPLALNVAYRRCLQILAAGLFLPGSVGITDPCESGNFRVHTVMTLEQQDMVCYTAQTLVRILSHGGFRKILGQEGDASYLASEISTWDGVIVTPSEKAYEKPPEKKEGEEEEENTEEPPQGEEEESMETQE
UniProt Q08211: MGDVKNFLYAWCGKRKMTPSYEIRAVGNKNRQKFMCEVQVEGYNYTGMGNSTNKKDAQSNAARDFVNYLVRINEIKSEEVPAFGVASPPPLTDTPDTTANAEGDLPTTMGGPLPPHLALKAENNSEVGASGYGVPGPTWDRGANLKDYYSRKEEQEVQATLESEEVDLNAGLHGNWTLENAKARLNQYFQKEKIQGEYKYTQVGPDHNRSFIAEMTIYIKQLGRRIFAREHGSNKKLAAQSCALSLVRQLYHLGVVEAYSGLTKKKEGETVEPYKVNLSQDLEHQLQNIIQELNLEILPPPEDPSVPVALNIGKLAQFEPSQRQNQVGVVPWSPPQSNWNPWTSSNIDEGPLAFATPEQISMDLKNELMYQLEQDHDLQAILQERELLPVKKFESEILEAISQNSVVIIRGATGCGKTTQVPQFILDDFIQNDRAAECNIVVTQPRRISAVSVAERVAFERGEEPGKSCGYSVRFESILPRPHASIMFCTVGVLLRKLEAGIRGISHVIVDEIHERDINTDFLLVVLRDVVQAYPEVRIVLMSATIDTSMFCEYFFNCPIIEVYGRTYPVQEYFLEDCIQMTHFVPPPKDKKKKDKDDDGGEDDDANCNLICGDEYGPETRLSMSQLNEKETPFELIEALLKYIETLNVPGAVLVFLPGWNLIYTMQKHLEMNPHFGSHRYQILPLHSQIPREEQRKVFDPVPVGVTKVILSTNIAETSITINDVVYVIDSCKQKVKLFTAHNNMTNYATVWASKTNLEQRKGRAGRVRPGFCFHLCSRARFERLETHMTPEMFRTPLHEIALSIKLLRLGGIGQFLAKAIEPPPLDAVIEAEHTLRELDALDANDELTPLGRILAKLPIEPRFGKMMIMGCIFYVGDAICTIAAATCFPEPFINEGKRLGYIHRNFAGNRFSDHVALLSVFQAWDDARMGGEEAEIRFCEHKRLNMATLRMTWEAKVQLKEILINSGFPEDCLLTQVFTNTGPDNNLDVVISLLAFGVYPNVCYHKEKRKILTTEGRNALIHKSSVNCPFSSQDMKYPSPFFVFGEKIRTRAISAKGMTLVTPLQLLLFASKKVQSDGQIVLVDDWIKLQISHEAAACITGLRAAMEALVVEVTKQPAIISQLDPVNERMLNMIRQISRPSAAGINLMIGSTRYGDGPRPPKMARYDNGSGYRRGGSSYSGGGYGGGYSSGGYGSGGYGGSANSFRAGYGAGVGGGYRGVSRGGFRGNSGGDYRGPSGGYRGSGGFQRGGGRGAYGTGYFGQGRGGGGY
UniProt Q15717: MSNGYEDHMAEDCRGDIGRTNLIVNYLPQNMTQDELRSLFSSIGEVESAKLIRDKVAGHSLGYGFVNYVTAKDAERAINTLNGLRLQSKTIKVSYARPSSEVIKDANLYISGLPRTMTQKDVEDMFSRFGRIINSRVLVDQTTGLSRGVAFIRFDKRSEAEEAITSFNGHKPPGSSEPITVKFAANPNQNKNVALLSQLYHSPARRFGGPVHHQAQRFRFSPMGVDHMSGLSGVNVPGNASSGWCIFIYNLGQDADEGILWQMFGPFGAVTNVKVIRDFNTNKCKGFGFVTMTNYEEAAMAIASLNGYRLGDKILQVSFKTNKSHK
UniProt Q7Z333: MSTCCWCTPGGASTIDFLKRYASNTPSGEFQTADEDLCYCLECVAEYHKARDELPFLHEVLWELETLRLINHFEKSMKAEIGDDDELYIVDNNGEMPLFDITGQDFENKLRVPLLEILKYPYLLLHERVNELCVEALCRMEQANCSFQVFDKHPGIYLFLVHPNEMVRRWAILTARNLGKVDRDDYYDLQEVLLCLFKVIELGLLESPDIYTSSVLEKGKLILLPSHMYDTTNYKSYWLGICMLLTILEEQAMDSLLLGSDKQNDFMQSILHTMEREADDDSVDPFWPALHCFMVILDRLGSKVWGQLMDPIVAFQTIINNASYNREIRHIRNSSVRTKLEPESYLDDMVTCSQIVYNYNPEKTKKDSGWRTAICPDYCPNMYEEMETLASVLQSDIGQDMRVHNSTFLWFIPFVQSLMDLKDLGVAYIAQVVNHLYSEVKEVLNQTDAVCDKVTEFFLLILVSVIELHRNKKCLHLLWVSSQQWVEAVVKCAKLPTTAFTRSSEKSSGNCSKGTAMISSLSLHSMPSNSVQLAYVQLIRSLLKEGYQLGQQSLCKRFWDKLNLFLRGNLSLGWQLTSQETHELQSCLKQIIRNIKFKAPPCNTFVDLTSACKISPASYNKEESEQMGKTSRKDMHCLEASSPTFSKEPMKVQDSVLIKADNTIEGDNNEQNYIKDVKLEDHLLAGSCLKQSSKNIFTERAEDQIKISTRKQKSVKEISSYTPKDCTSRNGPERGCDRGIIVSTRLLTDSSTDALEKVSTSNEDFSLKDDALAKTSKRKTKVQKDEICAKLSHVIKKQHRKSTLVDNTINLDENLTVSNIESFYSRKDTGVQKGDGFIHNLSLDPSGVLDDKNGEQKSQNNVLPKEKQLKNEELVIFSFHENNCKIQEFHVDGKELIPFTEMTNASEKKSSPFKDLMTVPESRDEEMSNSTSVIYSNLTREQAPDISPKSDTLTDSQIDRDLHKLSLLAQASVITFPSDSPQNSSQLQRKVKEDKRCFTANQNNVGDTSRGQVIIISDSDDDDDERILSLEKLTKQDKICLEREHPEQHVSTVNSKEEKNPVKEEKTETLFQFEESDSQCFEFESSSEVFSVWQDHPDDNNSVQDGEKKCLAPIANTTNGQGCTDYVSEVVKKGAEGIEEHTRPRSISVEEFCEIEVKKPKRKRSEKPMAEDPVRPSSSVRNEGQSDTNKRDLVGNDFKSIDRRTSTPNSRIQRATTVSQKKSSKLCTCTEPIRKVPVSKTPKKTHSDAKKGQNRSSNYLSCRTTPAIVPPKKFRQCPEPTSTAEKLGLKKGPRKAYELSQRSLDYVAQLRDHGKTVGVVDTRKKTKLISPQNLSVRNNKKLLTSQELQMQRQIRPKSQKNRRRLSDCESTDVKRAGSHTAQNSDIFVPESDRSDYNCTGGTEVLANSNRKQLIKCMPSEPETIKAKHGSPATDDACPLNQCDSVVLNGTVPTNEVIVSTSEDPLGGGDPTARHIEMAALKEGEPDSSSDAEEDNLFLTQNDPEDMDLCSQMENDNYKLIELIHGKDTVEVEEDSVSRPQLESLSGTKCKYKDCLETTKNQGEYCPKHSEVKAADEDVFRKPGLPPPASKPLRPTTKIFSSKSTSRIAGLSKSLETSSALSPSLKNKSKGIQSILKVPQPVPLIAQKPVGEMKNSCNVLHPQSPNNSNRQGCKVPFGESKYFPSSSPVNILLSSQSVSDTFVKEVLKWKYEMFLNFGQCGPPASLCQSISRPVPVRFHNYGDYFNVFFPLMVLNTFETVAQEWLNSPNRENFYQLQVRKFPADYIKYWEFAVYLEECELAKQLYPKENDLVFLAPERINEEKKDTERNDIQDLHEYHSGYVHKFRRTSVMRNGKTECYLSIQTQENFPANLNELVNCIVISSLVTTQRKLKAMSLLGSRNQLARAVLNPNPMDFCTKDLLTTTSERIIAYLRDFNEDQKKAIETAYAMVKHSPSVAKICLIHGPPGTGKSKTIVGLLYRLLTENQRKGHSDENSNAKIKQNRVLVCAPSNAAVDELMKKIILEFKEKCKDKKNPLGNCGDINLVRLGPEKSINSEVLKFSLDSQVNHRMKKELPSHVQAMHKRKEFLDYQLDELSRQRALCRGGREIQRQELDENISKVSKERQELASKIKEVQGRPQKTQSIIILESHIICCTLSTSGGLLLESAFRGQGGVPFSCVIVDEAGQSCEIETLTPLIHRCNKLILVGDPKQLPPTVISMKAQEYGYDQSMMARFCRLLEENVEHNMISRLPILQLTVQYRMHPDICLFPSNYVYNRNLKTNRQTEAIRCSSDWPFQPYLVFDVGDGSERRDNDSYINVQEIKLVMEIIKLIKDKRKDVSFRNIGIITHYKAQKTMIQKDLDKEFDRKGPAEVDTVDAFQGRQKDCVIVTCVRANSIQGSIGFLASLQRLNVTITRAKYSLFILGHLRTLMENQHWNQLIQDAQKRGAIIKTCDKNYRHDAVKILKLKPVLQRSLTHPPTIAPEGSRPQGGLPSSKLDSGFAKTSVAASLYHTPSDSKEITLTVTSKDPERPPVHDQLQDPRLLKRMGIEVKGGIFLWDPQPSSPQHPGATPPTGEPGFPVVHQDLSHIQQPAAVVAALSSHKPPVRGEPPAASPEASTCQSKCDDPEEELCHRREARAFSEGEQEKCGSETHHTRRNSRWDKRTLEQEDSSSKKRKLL
UniProt P67809: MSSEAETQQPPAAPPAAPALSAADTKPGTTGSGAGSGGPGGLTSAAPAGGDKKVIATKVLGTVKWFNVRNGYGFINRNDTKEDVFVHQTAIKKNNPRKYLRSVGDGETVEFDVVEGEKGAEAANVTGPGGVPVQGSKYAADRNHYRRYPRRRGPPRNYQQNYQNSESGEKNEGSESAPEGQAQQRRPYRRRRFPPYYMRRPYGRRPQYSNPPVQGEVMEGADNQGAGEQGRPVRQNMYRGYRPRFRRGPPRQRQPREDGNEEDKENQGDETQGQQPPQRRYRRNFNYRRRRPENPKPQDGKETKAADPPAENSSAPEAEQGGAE

Test [1] concerns the target interleukin enhancer-binding factor 2 (ILF2) (human (endogenous in DLD1)) (UniProt Q12905). Put plainly: pull-down.
For test [2], the target named is DExH-box helicase 9 (DHX9) (human (endogenous in DLD1)) (UniProt Q08211). The test is described as follows: co-IP + proximity ligation.

Results are given in words; binding and its absence hold for the method and conditions named. In cells and extracts the contact can be indirect. Some entries that bind do so weakly or less than the wild type.

In the case of HuR (from UniProt Q15717 1-326), the binding result in test [1] was “binds”.

Turning to “Senataxin (SETX) (from UniProt Q7Z333 1-2677) (enzyme)”, the binding entry in test [2] is “binds”; in test [1], “no binding”.

YB1 (from UniProt P67809 1-324): the binding entry in test [1] is reported as “binds”.
